Assay results: paper PMC7442826
These are yes or no findings as the source states them, for the method shown.

Sequences of proteins named here, by UniProt entry; tags and fusion partners are left off. A change or cut given only in a name is not applied to a line headed by its entry. A line that says so, or that is headed by a name, gives the form on record, which may keep a tag or linker. Residues count along the entry.
EHBP1 bMERB domain V1183A (Q8NDI1, form named): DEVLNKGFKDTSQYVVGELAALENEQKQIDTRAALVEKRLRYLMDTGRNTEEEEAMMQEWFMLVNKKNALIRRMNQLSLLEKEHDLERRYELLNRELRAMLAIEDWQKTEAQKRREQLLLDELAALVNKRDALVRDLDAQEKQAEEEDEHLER
UniProt P61006, residues 1-176: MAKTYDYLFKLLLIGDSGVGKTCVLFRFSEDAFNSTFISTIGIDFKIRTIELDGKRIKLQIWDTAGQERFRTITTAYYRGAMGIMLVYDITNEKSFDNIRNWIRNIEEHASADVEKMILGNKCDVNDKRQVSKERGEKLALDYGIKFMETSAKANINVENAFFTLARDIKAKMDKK

Molecular target: EHBP1 bMERB domain V1183A (human) (UniProt Q8NDI1)
Assay: condition: 500 µM GppNHp Rab8a_(1-176) titrated to 50 µM bMERB domain; ITC; 500 µM GppNHp Rab titrated into 50 µM bMERB domain; 20 mM Hepes 7.5, 50 mM NaCl, 1 mM MgCl2, 1 mM TCEP; 25 °C; one-site-binding model; both purified

- binding: no binding
Substance: Rab8a_(1-176) (human Rab8a G-domain) (from UniProt P61006 1-176) (domain or fragment)
